Reference: article PMC5818060
No constants are given. Whether binding was seen depends on the method and setting.

Sequences of proteins named here, by UniProt entry; tags and fusion partners are left off. A change or cut given only in a name is not applied to a line headed by its entry. Residues count along the entry.
UniProt O00571, residues 414-582: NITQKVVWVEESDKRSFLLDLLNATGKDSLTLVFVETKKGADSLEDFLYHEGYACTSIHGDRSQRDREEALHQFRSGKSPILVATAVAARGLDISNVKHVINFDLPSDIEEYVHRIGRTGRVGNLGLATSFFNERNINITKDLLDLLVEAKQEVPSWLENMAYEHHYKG
UniProt P48730: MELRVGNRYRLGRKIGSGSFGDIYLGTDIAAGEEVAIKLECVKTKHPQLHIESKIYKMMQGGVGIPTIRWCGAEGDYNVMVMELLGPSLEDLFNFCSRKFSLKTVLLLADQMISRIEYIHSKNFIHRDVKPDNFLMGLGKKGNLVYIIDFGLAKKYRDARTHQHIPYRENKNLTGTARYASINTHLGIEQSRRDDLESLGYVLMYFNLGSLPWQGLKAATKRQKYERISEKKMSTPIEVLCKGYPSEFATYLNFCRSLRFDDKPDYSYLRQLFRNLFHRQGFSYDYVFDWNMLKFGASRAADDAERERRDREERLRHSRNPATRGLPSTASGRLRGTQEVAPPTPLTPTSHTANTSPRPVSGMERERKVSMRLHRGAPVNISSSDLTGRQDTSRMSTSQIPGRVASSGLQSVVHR

Target: His-DDX3X^414-582 (human) (UniProt O00571)
Assay: fluorescence thermal shift (FTS) assay; 10 µM His-DDX3X^414-582, 20 µM peptide, 50 mM HEPES pH 8, 10x SYPRO-Orange; change of melting temperature; both purified

**Q.** With SGSGAPPTPLTPTSHTANT (peptide, UniProt P48730 341-355, biotin on the N-terminus, coupled via the SGSG spacer) [CK1δ-derived peptide δ-341] as the binder, how does the binding read?
**A.** Its binding is “no binding (tested: 20 µM)”.
